The target in the assay is T1, human interleukin 13 receptor alpha 2 (IL-13Rα2), biotinylated (human) (UniProt Q14627).
T1 sequence (biotinylated (site not stated), looked up): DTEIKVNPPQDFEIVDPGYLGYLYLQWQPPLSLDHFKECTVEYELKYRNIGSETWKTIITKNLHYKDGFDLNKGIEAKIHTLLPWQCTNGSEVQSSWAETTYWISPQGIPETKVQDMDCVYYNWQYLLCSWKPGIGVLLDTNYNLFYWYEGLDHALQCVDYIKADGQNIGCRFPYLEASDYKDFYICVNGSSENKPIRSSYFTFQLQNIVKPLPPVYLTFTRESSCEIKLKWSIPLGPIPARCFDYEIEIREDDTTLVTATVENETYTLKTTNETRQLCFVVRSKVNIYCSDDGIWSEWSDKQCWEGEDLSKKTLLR
As to the kind of experiment: told in words; SPR on captured biotinylated receptor (FIG. 2).

These are yes or no findings as the source states them, for the method shown. Some entries that bind do so weakly or less than the wild type.

The record followed here is US20210214410A1 (Stanford University, published 2021).

B1: IL-13 variant D7 (IL-13Rα2-selective IL-13 superkine; L10A, V18F, R86K, D87K, K89R, L101I, K104R, R108K) (ligand)
chain: PGPVPPSTAARELIEELFNITQNQKAPLCNGSMVWSINLTAGMYCAALESLINVSGCSAIEKTKRMLSGFCPHKVSAGQFPSLHVKKTRIEVAQFVKDLLIHLRKLFKEGQFNHHHHHH
notes: the first is used here; also called polypeptide D7
Consider B1, for which the binding entry is recorded as “binds”.
